According to the supplement of paper PMC10849652:
This is one part of the list.

By UniProt entry, the sequences of proteins in these tests, tags left out. Where a name states a change or a piece, a line headed by the entry shows the natural chain unless it says otherwise.
UniProt P55157: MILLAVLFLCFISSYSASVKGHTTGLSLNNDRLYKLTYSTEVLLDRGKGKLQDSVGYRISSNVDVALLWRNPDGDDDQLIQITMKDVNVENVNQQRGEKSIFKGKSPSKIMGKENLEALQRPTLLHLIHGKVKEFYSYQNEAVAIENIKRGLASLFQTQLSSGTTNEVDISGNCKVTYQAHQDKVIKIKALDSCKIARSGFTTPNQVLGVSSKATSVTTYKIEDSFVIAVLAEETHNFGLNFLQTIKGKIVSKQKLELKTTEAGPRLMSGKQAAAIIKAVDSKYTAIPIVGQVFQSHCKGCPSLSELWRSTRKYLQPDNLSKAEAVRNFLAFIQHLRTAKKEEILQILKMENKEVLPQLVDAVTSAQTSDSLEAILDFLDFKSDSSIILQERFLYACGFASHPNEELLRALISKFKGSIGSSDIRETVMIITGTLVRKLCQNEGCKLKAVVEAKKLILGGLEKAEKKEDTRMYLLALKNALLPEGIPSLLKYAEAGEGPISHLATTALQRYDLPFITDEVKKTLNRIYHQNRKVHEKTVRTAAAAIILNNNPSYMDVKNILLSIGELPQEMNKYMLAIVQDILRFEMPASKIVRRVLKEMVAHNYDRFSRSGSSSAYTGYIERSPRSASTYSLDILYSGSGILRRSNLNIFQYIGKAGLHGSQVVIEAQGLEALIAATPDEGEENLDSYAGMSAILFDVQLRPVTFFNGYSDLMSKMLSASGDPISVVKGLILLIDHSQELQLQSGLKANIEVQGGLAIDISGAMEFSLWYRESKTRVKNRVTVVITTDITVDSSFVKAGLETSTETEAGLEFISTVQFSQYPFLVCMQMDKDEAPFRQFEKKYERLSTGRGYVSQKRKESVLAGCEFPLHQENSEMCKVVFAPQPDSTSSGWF
UniProt Q9NVV4: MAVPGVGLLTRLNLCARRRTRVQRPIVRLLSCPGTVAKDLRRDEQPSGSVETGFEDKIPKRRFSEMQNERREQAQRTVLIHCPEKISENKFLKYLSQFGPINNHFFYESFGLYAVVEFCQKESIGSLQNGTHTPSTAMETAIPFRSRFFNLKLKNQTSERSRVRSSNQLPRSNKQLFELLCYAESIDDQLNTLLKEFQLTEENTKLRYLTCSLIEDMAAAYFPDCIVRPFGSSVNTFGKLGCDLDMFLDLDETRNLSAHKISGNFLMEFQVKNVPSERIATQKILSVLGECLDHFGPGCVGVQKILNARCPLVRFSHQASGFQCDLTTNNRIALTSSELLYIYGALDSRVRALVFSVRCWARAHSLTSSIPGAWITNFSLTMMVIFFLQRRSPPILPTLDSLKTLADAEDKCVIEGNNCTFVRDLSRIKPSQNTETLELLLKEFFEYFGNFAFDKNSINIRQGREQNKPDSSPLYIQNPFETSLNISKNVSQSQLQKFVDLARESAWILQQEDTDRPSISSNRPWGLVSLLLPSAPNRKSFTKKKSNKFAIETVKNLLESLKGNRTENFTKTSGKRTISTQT
UniProt Q9NXD2: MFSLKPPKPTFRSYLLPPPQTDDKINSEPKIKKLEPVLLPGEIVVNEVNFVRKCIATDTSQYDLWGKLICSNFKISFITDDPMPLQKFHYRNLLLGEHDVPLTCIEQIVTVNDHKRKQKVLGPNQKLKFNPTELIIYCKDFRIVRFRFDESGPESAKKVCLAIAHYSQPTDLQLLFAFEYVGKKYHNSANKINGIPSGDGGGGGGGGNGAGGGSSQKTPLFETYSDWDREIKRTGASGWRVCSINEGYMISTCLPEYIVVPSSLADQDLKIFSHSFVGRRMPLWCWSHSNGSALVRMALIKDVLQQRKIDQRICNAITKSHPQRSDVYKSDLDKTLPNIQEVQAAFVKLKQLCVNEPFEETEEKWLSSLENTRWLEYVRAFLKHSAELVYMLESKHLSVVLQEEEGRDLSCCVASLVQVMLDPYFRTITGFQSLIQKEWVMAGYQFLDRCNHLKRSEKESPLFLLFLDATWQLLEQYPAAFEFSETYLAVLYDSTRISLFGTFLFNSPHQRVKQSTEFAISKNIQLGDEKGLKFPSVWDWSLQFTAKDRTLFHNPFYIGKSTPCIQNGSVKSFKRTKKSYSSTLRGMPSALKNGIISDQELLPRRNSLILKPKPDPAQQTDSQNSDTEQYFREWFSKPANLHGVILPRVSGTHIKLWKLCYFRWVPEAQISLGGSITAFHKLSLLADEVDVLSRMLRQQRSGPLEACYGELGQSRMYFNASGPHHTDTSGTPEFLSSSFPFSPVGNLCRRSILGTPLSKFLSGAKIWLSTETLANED
UniProt Q2M296: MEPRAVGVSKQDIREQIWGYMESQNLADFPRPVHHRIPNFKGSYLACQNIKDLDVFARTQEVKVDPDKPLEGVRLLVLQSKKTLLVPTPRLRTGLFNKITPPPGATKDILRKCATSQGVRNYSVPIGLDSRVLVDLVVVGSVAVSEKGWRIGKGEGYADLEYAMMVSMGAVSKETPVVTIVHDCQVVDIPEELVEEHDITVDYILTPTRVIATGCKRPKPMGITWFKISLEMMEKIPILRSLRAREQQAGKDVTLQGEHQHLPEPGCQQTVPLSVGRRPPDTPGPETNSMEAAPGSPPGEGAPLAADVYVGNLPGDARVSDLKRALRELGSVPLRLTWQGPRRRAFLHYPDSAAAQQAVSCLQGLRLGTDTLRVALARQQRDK
UniProt Q14872: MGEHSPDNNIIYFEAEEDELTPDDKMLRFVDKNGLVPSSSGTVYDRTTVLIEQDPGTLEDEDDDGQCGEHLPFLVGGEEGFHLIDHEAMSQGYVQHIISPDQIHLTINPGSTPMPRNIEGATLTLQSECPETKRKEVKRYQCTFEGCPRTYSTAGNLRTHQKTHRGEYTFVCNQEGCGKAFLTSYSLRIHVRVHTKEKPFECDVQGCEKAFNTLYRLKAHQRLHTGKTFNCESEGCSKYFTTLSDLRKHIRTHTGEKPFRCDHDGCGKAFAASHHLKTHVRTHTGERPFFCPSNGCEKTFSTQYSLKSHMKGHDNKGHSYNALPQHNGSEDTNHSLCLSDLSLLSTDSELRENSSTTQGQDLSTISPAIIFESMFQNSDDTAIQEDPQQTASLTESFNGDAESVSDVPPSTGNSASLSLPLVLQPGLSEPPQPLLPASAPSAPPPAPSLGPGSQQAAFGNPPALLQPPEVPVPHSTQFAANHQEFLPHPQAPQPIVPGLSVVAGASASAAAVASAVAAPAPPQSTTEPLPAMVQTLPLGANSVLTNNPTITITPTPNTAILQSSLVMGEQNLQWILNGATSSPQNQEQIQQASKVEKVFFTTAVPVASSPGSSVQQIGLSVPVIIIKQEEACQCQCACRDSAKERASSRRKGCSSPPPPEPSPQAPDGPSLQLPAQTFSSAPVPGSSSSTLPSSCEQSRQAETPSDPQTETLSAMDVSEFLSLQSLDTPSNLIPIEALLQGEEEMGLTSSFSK
UniProt P03928: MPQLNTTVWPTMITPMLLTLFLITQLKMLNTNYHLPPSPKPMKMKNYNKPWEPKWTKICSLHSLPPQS
UniProt Q9HD23: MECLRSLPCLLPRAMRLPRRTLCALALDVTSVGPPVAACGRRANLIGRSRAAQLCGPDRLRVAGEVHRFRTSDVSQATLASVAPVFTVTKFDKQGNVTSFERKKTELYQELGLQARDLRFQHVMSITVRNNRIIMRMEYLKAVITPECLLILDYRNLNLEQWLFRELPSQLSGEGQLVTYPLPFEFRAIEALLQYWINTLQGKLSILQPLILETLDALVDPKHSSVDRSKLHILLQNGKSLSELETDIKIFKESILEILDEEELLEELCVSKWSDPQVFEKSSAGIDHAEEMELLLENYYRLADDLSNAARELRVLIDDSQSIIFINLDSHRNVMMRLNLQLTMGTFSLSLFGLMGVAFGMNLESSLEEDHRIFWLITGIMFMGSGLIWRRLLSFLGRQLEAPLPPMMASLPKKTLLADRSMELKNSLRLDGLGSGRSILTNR
UniProt Q93083: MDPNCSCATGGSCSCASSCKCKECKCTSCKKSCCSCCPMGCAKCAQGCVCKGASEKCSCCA
UniProt P03897, whole entry, looked up: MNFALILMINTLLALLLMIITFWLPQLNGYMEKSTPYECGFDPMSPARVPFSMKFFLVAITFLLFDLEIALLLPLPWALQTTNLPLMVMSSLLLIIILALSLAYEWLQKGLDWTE
UniProt Q96DP5: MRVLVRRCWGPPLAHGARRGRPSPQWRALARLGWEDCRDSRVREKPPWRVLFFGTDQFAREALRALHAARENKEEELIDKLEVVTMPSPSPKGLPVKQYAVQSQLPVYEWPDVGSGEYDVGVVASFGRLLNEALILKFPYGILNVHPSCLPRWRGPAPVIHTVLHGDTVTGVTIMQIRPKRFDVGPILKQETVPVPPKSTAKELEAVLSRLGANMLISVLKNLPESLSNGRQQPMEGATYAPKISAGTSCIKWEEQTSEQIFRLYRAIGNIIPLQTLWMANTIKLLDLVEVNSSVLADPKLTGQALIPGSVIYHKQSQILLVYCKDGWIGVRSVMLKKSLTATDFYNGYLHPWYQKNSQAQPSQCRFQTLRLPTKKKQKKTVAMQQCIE
UniProt Q9NYA4: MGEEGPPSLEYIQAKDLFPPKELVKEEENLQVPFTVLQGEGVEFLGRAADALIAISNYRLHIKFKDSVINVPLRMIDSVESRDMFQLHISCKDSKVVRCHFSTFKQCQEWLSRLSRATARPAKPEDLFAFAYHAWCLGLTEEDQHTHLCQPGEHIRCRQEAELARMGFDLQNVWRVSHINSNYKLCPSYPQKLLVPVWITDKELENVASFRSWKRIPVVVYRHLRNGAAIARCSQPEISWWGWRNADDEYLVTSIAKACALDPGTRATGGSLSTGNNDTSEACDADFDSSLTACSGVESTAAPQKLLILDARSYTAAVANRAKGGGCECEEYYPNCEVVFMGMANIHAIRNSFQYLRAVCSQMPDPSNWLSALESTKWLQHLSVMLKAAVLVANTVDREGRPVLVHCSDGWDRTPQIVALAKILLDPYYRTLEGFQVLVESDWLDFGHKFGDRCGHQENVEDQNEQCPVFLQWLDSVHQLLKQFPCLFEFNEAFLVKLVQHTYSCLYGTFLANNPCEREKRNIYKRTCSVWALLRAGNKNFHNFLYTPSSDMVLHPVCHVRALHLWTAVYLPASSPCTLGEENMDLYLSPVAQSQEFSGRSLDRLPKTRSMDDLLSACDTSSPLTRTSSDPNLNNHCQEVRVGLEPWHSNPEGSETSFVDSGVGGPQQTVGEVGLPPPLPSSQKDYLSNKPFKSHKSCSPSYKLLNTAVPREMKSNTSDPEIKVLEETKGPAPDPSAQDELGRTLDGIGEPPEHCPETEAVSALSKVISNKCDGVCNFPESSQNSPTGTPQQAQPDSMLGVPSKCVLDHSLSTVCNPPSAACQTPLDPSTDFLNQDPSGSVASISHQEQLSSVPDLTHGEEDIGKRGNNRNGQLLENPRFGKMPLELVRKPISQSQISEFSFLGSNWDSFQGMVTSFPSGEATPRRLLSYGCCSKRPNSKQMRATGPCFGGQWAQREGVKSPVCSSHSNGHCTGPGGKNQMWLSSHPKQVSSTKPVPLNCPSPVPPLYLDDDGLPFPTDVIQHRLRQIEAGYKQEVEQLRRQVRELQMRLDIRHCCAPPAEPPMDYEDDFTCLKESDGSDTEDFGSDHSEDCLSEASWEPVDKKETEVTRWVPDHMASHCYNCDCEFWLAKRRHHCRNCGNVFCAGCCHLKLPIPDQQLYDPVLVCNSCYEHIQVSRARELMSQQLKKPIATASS
UniProt P03923, whole entry, looked up: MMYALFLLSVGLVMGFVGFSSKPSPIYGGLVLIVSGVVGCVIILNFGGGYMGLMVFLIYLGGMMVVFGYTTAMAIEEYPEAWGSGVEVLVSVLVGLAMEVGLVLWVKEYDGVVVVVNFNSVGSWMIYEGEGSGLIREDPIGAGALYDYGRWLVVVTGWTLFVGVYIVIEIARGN
UniProt O43312: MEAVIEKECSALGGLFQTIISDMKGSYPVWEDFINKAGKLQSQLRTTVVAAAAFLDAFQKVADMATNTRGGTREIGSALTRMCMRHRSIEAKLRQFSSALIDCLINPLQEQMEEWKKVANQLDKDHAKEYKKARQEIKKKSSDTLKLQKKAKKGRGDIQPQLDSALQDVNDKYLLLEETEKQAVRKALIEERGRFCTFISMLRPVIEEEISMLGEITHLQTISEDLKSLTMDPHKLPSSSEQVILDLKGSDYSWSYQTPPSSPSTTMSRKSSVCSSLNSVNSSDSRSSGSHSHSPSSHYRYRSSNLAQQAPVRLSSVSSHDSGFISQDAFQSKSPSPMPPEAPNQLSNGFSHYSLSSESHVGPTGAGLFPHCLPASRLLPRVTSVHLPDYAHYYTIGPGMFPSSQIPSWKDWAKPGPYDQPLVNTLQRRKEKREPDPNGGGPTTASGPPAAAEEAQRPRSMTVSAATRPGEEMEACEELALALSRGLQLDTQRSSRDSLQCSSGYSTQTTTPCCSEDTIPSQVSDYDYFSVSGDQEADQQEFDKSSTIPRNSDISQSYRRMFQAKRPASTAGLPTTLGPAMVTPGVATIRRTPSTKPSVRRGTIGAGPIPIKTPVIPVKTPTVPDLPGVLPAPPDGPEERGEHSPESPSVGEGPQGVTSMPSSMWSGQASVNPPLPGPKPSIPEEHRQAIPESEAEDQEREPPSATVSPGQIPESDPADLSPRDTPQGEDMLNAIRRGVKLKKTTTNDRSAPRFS

How the values were obtained:
Assay in all cases: log2 fold change, soluble protein after heating vs DMSO (PISA); higher = thermal stabilisation; K562 lysate, 10 uM; active = over 0.2 and 3.5 SD of the protein, either way, in both replicates (recomputed)
[1] = compound: C[C@H](C1=CC=C(C=C1)C(=O)NC2=C3C=CNC3=NC=C2)N
Summary of the method: (§1)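 Soluble protein was defined as the supernatant remaining after 21,000xg for 90 min, following pooling of heated aliquots and adjustment to 0.5% NP-40 at 4°C. Before that, crude K562 extract at 1 mg/mL protein in PBS pH 7.4 with 1 mM MgCl2 was treated with 10 μM compound for 30 min and heated for 3 min across 48°C-58°C. Quantification used TMTpro 16plex LC-MS/MS with channel sums equalised, and values are log-two fold changes in thermal stability relative to solvent controls from duplicates.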

gandotinib = compound: Cc1cc(Nc2cc(CN3CCOCC3)c3nc(C)c(Cc4ccc(Cl)cc4F)n3n2)n[nH]1 [gandotinib]
Summary of the method: as §1

[2] = compound: Cc1cccc(CC(=O)N2CCc3c2ccc(-c2cn(C)c4ncnc(N)c24)c3F)n1
Summary of the method: as §1

pictilisib = compound: CS(=O)(=O)N1CCN(Cc2cc3nc(-c4cccc5[nH]ncc45)nc(N4CCOCC4)c3s2)CC1 [pictilisib]
Summary of the method: as §1

bafetinib = compound: Cc1ccc(NC(=O)c2ccc(CN3CC[C@H](N(C)C)C3)c(C(F)(F)F)c2)cc1Nc1nccc(-c2cncnc2)n1 [bafetinib]
Summary of the method: as §1

lapatinib = compound: CS(=O)(=O)CCNCc1ccc(-c2ccc3ncnc(Nc4ccc(OCc5cccc(F)c5)c(Cl)c4)c3c2)o1 [lapatinib]
Summary of the method: as §1

crizotinib = compound: C[C@@H](Oc1cc(-c2cnn(C3CCNCC3)c2)cnc1N)c1c(Cl)ccc(F)c1Cl [crizotinib]
Summary of the method: as §1

duvelisib = compound: C[C@H](Nc1ncnc2nc[nH]c12)c1cc2cccc(Cl)c2c(=O)n1-c1ccccc1 [duvelisib]
Summary of the method: as §1

tozasertib = compound: Cc1cc(Nc2cc(N3CCN(C)CC3)nc(Sc3ccc(NC(=O)C4CC4)cc3)n2)n[nH]1 [tozasertib]
Summary of the method: as §1

doramapimod = compound: Cc1ccc(-n2nc(C(C)(C)C)cc2NC(=O)Nc2ccc(OCCN3CCOCC3)c3ccccc23)cc1 [doramapimod]
Summary of the method: as §1

Measured: log2 fold change

MSH4 (UniProt O15457)
inactive: [1] 0.331 | gandotinib -0.158 | [2] 0.196

MTTP (UniProt P55157)
inactive: pictilisib -0.453 | bafetinib 0.217

MTRES1 (UniProt Q9P0P8)
inactive: lapatinib -0.03 | pictilisib 0.015 | crizotinib -0.053 | duvelisib 0.008 | tozasertib 0.027 | doramapimod 0.089 | bafetinib 0.119

MSRA (UniProt Q9UJ68)
inactive: lapatinib -0.228 | [1] 0.053 | gandotinib 0.005 | tozasertib -0.121 | [2] -0.078

MRPL24 (UniProt Q96A35)
inactive: lapatinib 0.037 | crizotinib -0.114 | [1] 0.037 | duvelisib 0.012 | gandotinib -0.071 | tozasertib 0.07 | doramapimod 0.037 | [2] -0.034

MSL2 (UniProt Q9HCI7)
inactive: crizotinib -0.082 | tozasertib -0.005 | doramapimod -0.017

MTURN (UniProt Q8N3F0)
inactive: crizotinib -0.05 | duvelisib -0.015 | tozasertib 0.061 | doramapimod 0.006

MS4A3 (UniProt Q96HJ5)
inactive: lapatinib -0.017 | crizotinib -0.106 | tozasertib 0.002 | doramapimod 0.074

MTPAP (UniProt Q9NVV4)
inactive: lapatinib -0.107 | crizotinib -0.044 | [1] 0.039 | duvelisib -0.006 | gandotinib -0.014 | tozasertib 0.028 | doramapimod 0.084 | [2] -0.085

MTCL1 (UniProt Q9Y4B5)
inactive: lapatinib -0.028 | pictilisib -0.156 | crizotinib -0.056 | duvelisib 0.011 | tozasertib 0.008 | doramapimod 0.11 | bafetinib 0.065

MSH5 isoform 3 (UniProt O43196)
inactive: lapatinib -0.068 | crizotinib -0.287 | duvelisib 0.197 | tozasertib 0.629 | doramapimod 0.296

MUC19 (UniProt Q7Z5P9)
inactive: lapatinib -0.06 | pictilisib 0.011 | [1] 0.032 | gandotinib -0.033 | bafetinib -0.078 | [2] -0.019

MTMR10 (UniProt Q9NXD2)
inactive: lapatinib -0.086 | crizotinib 0.041 | duvelisib 0.058 | doramapimod 0.008

MTHFSD isoform 3 (UniProt Q2M296)
inactive: lapatinib 0.014 | pictilisib 0.032 | crizotinib 0.014 | [1] -0.04 | duvelisib -0.013 | gandotinib 0.091 | doramapimod 0.005 | bafetinib -0.016 | [2] -0.119

MTF1 (UniProt Q14872)
inactive: [1] 0.248 | gandotinib -0.035 | [2] -0.189

MRTFA (UniProt Q969V6)
inactive: pictilisib -0.008 | crizotinib -0.059 | [1] -0.032 | duvelisib -0.061 | gandotinib 0.02 | tozasertib 0.055 | doramapimod -0.007 | bafetinib -0.042 | [2] -0.007

MT-ATP8 (UniProt P03928)
active: [1] 0.402
inactive: lapatinib 0.024 | pictilisib -0.002 | crizotinib -0.121 | gandotinib -0.054 | tozasertib -0.078 | doramapimod 0.011 | bafetinib -0.087 | [2] -0.107

MRS2 isoform 2 (UniProt Q9HD23)
inactive: crizotinib -0.113 | doramapimod 0.064

2 consecutive entries already listed:
MS4A3 (UniProt Q96HJ5)
inactive: lapatinib -0.017 | crizotinib -0.106 | tozasertib 0.002 | doramapimod 0.074

MTPAP (UniProt Q9NVV4)
inactive: lapatinib -0.107 | crizotinib -0.044 | [1] 0.039 | duvelisib -0.006 | gandotinib -0.014 | tozasertib 0.028 | doramapimod 0.084 | [2] -0.085

(listing goes on)

MTHFR (UniProt F8W9T8)
inactive: pictilisib -0.129 | bafetinib -0.062

MRPS14 (UniProt O60783)
inactive: lapatinib 0.115 | pictilisib 0.131 | crizotinib -0.031 | [1] -0.019 | gandotinib -0.09 | tozasertib 0.085 | doramapimod -0.006 | bafetinib -0.003 | [2] -0.05

MTO1 isoform 4 (UniProt Q9Y2Z2)
inactive: pictilisib -0.009 | crizotinib -0.058 | [1] 0.006 | duvelisib 0.103 | gandotinib -0.041 | tozasertib 0.004 | doramapimod 0.094 | bafetinib 0.053 | [2] 0.095

MTIF3 (UniProt Q9H2K0)
inactive: lapatinib -0.034 | pictilisib -0.151 | [1] -0.043 | duvelisib -0.014 | gandotinib 0.012 | bafetinib -0.027 | [2] -0.013

MTG1 (UniProt Q9BT17)
inactive: [1] 0.014 | gandotinib 0.004 | [2] 0.16

MTRF1 isoform 2 (UniProt O75570)
inactive: crizotinib 0.051 | [1] 0.232 | gandotinib -0.192 | doramapimod 0.035 | [2] 0.272

MRPL35 (UniProt Q9NZE8)
inactive: lapatinib 0.051 | pictilisib 0.001 | crizotinib 0.01 | [1] -0.207 | duvelisib -0.054 | gandotinib 0 | doramapimod -0.023 | bafetinib -0.02 | [2] 0.039

MT1L (UniProt Q93083)
inactive: pictilisib 0.378 | crizotinib -0.066 | [1] 0.014 | gandotinib -0.004 | doramapimod -0.071 | bafetinib 0.003 | [2] -0.074

MTERF2 (UniProt Q49AM1)
inactive: crizotinib 0.034 | duvelisib 0.051 | tozasertib -0.024 | doramapimod -0.065

MT-ND3 (UniProt P03897)
inactive: lapatinib 0.156 | pictilisib -0.021 | crizotinib 0.033 | [1] 0.036 | gandotinib -0.015 | tozasertib 0.036 | doramapimod -0.134 | bafetinib -0.136 | [2] 0.01

MTFMT (UniProt Q96DP5)
inactive: lapatinib 0.123 | crizotinib 0.106 | [1] -0.152 | duvelisib 0.243 | gandotinib 0.016 | doramapimod 0.101 | [2] 0.195

MTMR4 (UniProt Q9NYA4)
inactive: lapatinib 0.019 | crizotinib -0.088 | [1] -0.078 | duvelisib 0.01 | gandotinib 0.025 | doramapimod -0.106 | [2] 0.113

MSANTD2 (UniProt Q6P1R3)
inactive: crizotinib 0.001 | [1] -0.166 | duvelisib -0.032 | gandotinib 0.163 | tozasertib -0.067 | doramapimod -0.083 | [2] -0.099

MSL3 (UniProt Q8N5Y2)
inactive: crizotinib 0.008 | [1] -0.104 | duvelisib -0.032 | gandotinib -0.073 | tozasertib -0.124 | doramapimod 0.115 | [2] 0.002

MT-ND6 (UniProt P03923)
inactive: lapatinib -0.056 | crizotinib -0.263 | [1] -0.188 | gandotinib 0.133 | doramapimod 0.046 | [2] 0.182

MTSS1 isoform 5 (UniProt O43312)
inactive: lapatinib 0.089 | crizotinib -0.003 | duvelisib -0.975 | doramapimod 0.066
